Test results from patent US20140335107A1.
These are yes or no findings as the source states them, for the method shown. Some entries that bind do so weakly or less than the wild type.

The chains behind the UniProt entries cited, without tags or fusion partners. Where a name states a change or a piece, a line headed by the entry shows the natural chain unless it says otherwise.
UniProt P40259: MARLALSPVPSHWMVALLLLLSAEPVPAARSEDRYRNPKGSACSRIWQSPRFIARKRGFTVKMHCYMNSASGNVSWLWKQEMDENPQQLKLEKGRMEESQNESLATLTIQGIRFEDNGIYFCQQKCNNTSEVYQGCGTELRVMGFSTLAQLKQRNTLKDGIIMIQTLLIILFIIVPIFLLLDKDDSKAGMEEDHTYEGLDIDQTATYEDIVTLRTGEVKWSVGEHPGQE

Target: extracellular domain of human CD79b (huCD79becd) (human) (UniProt P40259)
Experiment: phage selection, Fab on phage

B1: huMA79b graft variant with HVR-L2 of SEQ ID NO: 37 (Fab, name in Kabat numbering, V domains shown)
VH: EVQLVESGGGLVQPGGSLRLSCAASGYTFSSYWIEWVRQAPGKGLEWVGEILPGGGDTNYNEIFKGRFTISADTSKNTAYLQMNSLRAEDTAVYYCTRRVPVYFDYWGQGTLVTVSS
VL: DIQMTQSPSSLSASVGDRVTITCKASQSVDYDGDSFLNWYQQKPGKAPKLLIYAARYLRRGVPSRFSGSGSGTDFTLTISSLQPEDFATYYCQQSNEDPLTFGQGTKVEIKR
With B1 the binding was “binds”.

B2: huMA79b graft variant with HVR-L2 of SEQ ID NO: 38 (Fab, name in Kabat numbering, V domains shown)
VH: EVQLVESGGGLVQPGGSLRLSCAASGYTFSSYWIEWVRQAPGKGLEWVGEILPGGGDTNYNEIFKGRFTISADTSKNTAYLQMNSLRAEDTAVYYCTRRVPVYFDYWGQGTLVTVSS
VL: DIQMTQSPSSLSASVGDRVTITCKASQSVDYDGDSFLNWYQQKPGKAPKLLIYAARRLRTGVPSRFSGSGSGTDFTLTISSLQPEDFATYYCQQSNEDPLTFGQGTKVEIKR
With B2 the binding was “binds”.

B3: huMA79b graft variant with HVR-L2 of SEQ ID NO: 39 (Fab, name in Kabat numbering, V domains shown)
VH: EVQLVESGGGLVQPGGSLRLSCAASGYTFSSYWIEWVRQAPGKGLEWVGEILPGGGDTNYNEIFKGRFTISADTSKNTAYLQMNSLRAEDTAVYYCTRRVPVYFDYWGQGTLVTVSS
VL: DIQMTQSPSSLSASVGDRVTITCKASQSVDYDGDSFLNWYQQKPGKAPKLLIYAARRLGRGVPSRFSGSGSGTDFTLTISSLQPEDFATYYCQQSNEDPLTFGQGTKVEIKR
In the case of B3, the binding is reported as “binds”.

B4: huMA79b graft variant with HVR-L2 of SEQ ID NO: 40 (Fab, name in Kabat numbering, V domains shown)
VH: EVQLVESGGGLVQPGGSLRLSCAASGYTFSSYWIEWVRQAPGKGLEWVGEILPGGGDTNYNEIFKGRFTISADTSKNTAYLQMNSLRAEDTAVYYCTRRVPVYFDYWGQGTLVTVSS
VL: DIQMTQSPSSLSASVGDRVTITCKASQSVDYDGDSFLNWYQQKPGKAPKLLIYAARQRKRGVPSRFSGSGSGTDFTLTISSLQPEDFATYYCQQSNEDPLTFGQGTKVEIKR
In the case of B4, the binding is reported as “binds”.

B5: huMA79b graft variant with HVR-L2 of SEQ ID NO: 41 (Fab, name in Kabat numbering, V domains shown)
VH: EVQLVESGGGLVQPGGSLRLSCAASGYTFSSYWIEWVRQAPGKGLEWVGEILPGGGDTNYNEIFKGRFTISADTSKNTAYLQMNSLRAEDTAVYYCTRRVPVYFDYWGQGTLVTVSS
VL: DIQMTQSPSSLSASVGDRVTITCKASQSVDYDGDSFLNWYQQKPGKAPKLLIYAARKLLRGVPSRFSGSGSGTDFTLTISSLQPEDFATYYCQQSNEDPLTFGQGTKVEIKR
In the case of B5, the binding is reported as “binds”.

B6: huMA79b graft variant with HVR-L2 of SEQ ID NO: 42 (Fab, name in Kabat numbering, V domains shown)
VH: EVQLVESGGGLVQPGGSLRLSCAASGYTFSSYWIEWVRQAPGKGLEWVGEILPGGGDTNYNEIFKGRFTISADTSKNTAYLQMNSLRAEDTAVYYCTRRVPVYFDYWGQGTLVTVSS
VL: DIQMTQSPSSLSASVGDRVTITCKASQSVDYDGDSFLNWYQQKPGKAPKLLIYAARKLKNGVPSRFSGSGSGTDFTLTISSLQPEDFATYYCQQSNEDPLTFGQGTKVEIKR
With B6 the binding was “binds”.

B7: huMA79b graft variant with HVR-L2 of SEQ ID NO: 43 (Fab, name in Kabat numbering, V domains shown)
VH: EVQLVESGGGLVQPGGSLRLSCAASGYTFSSYWIEWVRQAPGKGLEWVGEILPGGGDTNYNEIFKGRFTISADTSKNTAYLQMNSLRAEDTAVYYCTRRVPVYFDYWGQGTLVTVSS
VL: DIQMTQSPSSLSASVGDRVTITCKASQSVDYDGDSFLNWYQQKPGKAPKLLIYAARKLGTGVPSRFSGSGSGTDFTLTISSLQPEDFATYYCQQSNEDPLTFGQGTKVEIKR
B7 was tested, and the binding was “binds”.

B8: huMA79b graft variant with HVR-L2 of SEQ ID NO: 44 (Fab, name in Kabat numbering, V domains shown)
VH: EVQLVESGGGLVQPGGSLRLSCAASGYTFSSYWIEWVRQAPGKGLEWVGEILPGGGDTNYNEIFKGRFTISADTSKNTAYLQMNSLRAEDTAVYYCTRRVPVYFDYWGQGTLVTVSS
VL: DIQMTQSPSSLSASVGDRVTITCKASQSVDYDGDSFLNWYQQKPGKAPKLLIYAARKLGGGVPSRFSGSGSGTDFTLTISSLQPEDFATYYCQQSNEDPLTFGQGTKVEIKR
With B8 the binding was “binds”.

B9: huMA79b graft variant with HVR-L2 of SEQ ID NO: 45 (Fab, name in Kabat numbering, V domains shown)
VH: EVQLVESGGGLVQPGGSLRLSCAASGYTFSSYWIEWVRQAPGKGLEWVGEILPGGGDTNYNEIFKGRFTISADTSKNTAYLQMNSLRAEDTAVYYCTRRVPVYFDYWGQGTLVTVSS
VL: DIQMTQSPSSLSASVGDRVTITCKASQSVDYDGDSFLNWYQQKPGKAPKLLIYAARKLARGVPSRFSGSGSGTDFTLTISSLQPEDFATYYCQQSNEDPLTFGQGTKVEIKR
B9 was tested, and the binding was “binds”.

B10: huMA79b graft variant with HVR-L3 of SEQ ID NO: 46 (Fab, name in Kabat numbering, V domains shown)
VH: EVQLVESGGGLVQPGGSLRLSCAASGYTFSSYWIEWVRQAPGKGLEWVGEILPGGGDTNYNEIFKGRFTISADTSKNTAYLQMNSLRAEDTAVYYCTRRVPVYFDYWGQGTLVTVSS
VL: DIQMTQSPSSLSASVGDRVTITCKASQSVDYDGDSFLNWYQQKPGKAPKLLIYAASNLESGVPSRFSGSGSGTDFTLTISSLQPEDFATYYCQQSNADPLTFGQGTKVEIKR
For B10, the binding was “binds”.

B11: huMA79b graft variant with HVR-L3 of SEQ ID NO: 47 (Fab, name in Kabat numbering, V domains shown)
VH: EVQLVESGGGLVQPGGSLRLSCAASGYTFSSYWIEWVRQAPGKGLEWVGEILPGGGDTNYNEIFKGRFTISADTSKNTAYLQMNSLRAEDTAVYYCTRRVPVYFDYWGQGTLVTVSS
VL: DIQMTQSPSSLSASVGDRVTITCKASQSVDYDGDSFLNWYQQKPGKAPKLLIYAASNLESGVPSRFSGSGSGTDFTLTISSLQPEDFATYYCQQSNQDPLTFGQGTKVEIKR
B11 was tested, and the binding was “binds”.

B12: huMA79b graft variant with HVR-L3 of SEQ ID NO: 49 (Fab, name in Kabat numbering, V domains shown)
VH: EVQLVESGGGLVQPGGSLRLSCAASGYTFSSYWIEWVRQAPGKGLEWVGEILPGGGDTNYNEIFKGRFTISADTSKNTAYLQMNSLRAEDTAVYYCTRRVPVYFDYWGQGTLVTVSS
VL: DIQMTQSPSSLSASVGDRVTITCKASQSVDYDGDSFLNWYQQKPGKAPKLLIYAASNLESGVPSRFSGSGSGTDFTLTISSLQPEDFATYYCQQSNDDPLTFGQGTKVEIKR
With B12 the binding was “binds”.

B13: huMA79b graft variant with HVR-L3 of SEQ ID NO: 50 (Fab, name in Kabat numbering, V domains shown)
VH: EVQLVESGGGLVQPGGSLRLSCAASGYTFSSYWIEWVRQAPGKGLEWVGEILPGGGDTNYNEIFKGRFTISADTSKNTAYLQMNSLRAEDTAVYYCTRRVPVYFDYWGQGTLVTVSS
VL: DIQMTQSPSSLSASVGDRVTITCKASQSVDYDGDSFLNWYQQKPGKAPKLLIYAASNLESGVPSRFSGSGSGTDFTLTISSLQPEDFATYYCQQSNLDPLTFGQGTKVEIKR
With B13 the binding was “binds”.

B14: huMA79b graft variant with HVR-L3 of SEQ ID NO: 51 (Fab, name in Kabat numbering, V domains shown)
VH: EVQLVESGGGLVQPGGSLRLSCAASGYTFSSYWIEWVRQAPGKGLEWVGEILPGGGDTNYNEIFKGRFTISADTSKNTAYLQMNSLRAEDTAVYYCTRRVPVYFDYWGQGTLVTVSS
VL: DIQMTQSPSSLSASVGDRVTITCKASQSVDYDGDSFLNWYQQKPGKAPKLLIYAASNLESGVPSRFSGSGSGTDFTLTISSLQPEDFATYYCNNSNGDPLNFGQGTKVEIKR
For B14, the binding was “binds”.

B15: huMA79b graft variant with HVR-L3 of SEQ ID NO: 52 (Fab, name in Kabat numbering, V domains shown)
VH: EVQLVESGGGLVQPGGSLRLSCAASGYTFSSYWIEWVRQAPGKGLEWVGEILPGGGDTNYNEIFKGRFTISADTSKNTAYLQMNSLRAEDTAVYYCTRRVPVYFDYWGQGTLVTVSS
VL: DIQMTQSPSSLSASVGDRVTITCKASQSVDYDGDSFLNWYQQKPGKAPKLLIYAASNLESGVPSRFSGSGSGTDFTLTISSLQPEDFATYYCQPDNEAPRTFGQGTKVEIKR
With B15 the binding was “binds”.

B16: huMA79b graft variant with HVR-L3 of SEQ ID NO: 53 (Fab, name in Kabat numbering, V domains shown)
VH: EVQLVESGGGLVQPGGSLRLSCAASGYTFSSYWIEWVRQAPGKGLEWVGEILPGGGDTNYNEIFKGRFTISADTSKNTAYLQMNSLRAEDTAVYYCTRRVPVYFDYWGQGTLVTVSS
VL: DIQMTQSPSSLSASVGDRVTITCKASQSVDYDGDSFLNWYQQKPGKAPKLLIYAASNLESGVPSRFSGSGSGTDFTLTISSLQPEDFATYYCDQRNADPLTFGQGTKVEIKR
In the case of B16, the binding is reported as “binds”.

B17: huMA79b graft variant with HVR-H1 of SEQ ID NO: 54 (Fab, name in Kabat numbering, V domains shown)
VH: EVQLVESGGGLVQPGGSLRLSCAASGYPFTRYWISWVRQAPGKGLEWVGEILPGGGDTNYNEIFKGRFTISADTSKNTAYLQMNSLRAEDTAVYYCTRRVPVYFDYWGQGTLVTVSS
VL: DIQMTQSPSSLSASVGDRVTITCKASQSVDYDGDSFLNWYQQKPGKAPKLLIYAASNLESGVPSRFSGSGSGTDFTLTISSLQPEDFATYYCQQSNEDPLTFGQGTKVEIKR
B17 was tested, and the binding was “binds”.

B18: huMA79b graft variant with HVR-H1 of SEQ ID NO: 55 (Fab, name in Kabat numbering, V domains shown)
VH: EVQLVESGGGLVQPGGSLRLSCAASGYPFRSYWIQWVRQAPGKGLEWVGEILPGGGDTNYNEIFKGRFTISADTSKNTAYLQMNSLRAEDTAVYYCTRRVPVYFDYWGQGTLVTVSS
VL: DIQMTQSPSSLSASVGDRVTITCKASQSVDYDGDSFLNWYQQKPGKAPKLLIYAASNLESGVPSRFSGSGSGTDFTLTISSLQPEDFATYYCQQSNEDPLTFGQGTKVEIKR
For B18, the binding was “binds”.

B19: huMA79b graft variant with HVR-H1 of SEQ ID NO: 56 (Fab, name in Kabat numbering, V domains shown)
VH: EVQLVESGGGLVQPGGSLRLSCAASGYPFTSYWINWVRQAPGKGLEWVGEILPGGGDTNYNEIFKGRFTISADTSKNTAYLQMNSLRAEDTAVYYCTRRVPVYFDYWGQGTLVTVSS
VL: DIQMTQSPSSLSASVGDRVTITCKASQSVDYDGDSFLNWYQQKPGKAPKLLIYAASNLESGVPSRFSGSGSGTDFTLTISSLQPEDFATYYCQQSNEDPLTFGQGTKVEIKR
With B19 the binding was “binds”.

B20: huMA79b graft variant with HVR-H1 of SEQ ID NO: 58 (Fab, name in Kabat numbering, V domains shown)
VH: EVQLVESGGGLVQPGGSLRLSCAASGYTFNRYWINWVRQAPGKGLEWVGEILPGGGDTNYNEIFKGRFTISADTSKNTAYLQMNSLRAEDTAVYYCTRRVPVYFDYWGQGTLVTVSS
VL: DIQMTQSPSSLSASVGDRVTITCKASQSVDYDGDSFLNWYQQKPGKAPKLLIYAASNLESGVPSRFSGSGSGTDFTLTISSLQPEDFATYYCQQSNEDPLTFGQGTKVEIKR
B20 was tested, and the binding was “binds”.

B21: huMA79b graft variant with HVR-H1 of SEQ ID NO: 59 (Fab, name in Kabat numbering, V domains shown)
VH: EVQLVESGGGLVQPGGSLRLSCAASGYSFKSYWIEWVRQAPGKGLEWVGEILPGGGDTNYNEIFKGRFTISADTSKNTAYLQMNSLRAEDTAVYYCTRRVPVYFDYWGQGTLVTVSS
VL: DIQMTQSPSSLSASVGDRVTITCKASQSVDYDGDSFLNWYQQKPGKAPKLLIYAASNLESGVPSRFSGSGSGTDFTLTISSLQPEDFATYYCQQSNEDPLTFGQGTKVEIKR
With B21 the binding was “binds”.

B22: huMA79b graft variant with HVR-H1 of SEQ ID NO: 61 (Fab, name in Kabat numbering, V domains shown)
VH: EVQLVESGGGLVQPGGSLRLSCAASGYYFTSYWIEWVRQAPGKGLEWVGEILPGGGDTNYNEIFKGRFTISADTSKNTAYLQMNSLRAEDTAVYYCTRRVPVYFDYWGQGTLVTVSS
VL: DIQMTQSPSSLSASVGDRVTITCKASQSVDYDGDSFLNWYQQKPGKAPKLLIYAASNLESGVPSRFSGSGSGTDFTLTISSLQPEDFATYYCQQSNEDPLTFGQGTKVEIKR
With B22 the binding was “binds”.
